Earlier results, collected in patent US10676496B2, “Method for producing flavonoid inclusion compound” (TAIYO KAGAKU CO., LTD., priority 2017, dated 2020).
Some results were stated once for a whole list of compounds, not compound by compound. At least one compound was matched to its structure with a doubt left.

Details: background statement; cited from earlier work

## COc1ccc([C@@H]2CC(=O)c3c(O)cc(O[C@@H]4O[C@H](CO[C@@H]5O[C@@H](C)[C@H](O)[C@@H](O)[C@H]5O)[C@@H](O)[C@H](O)[C@H]4O)cc3O2)cc1O [Hesperidin]
  solubility: ≤ 0.01%
